Results reported in US20130225436A1.
Results are given in words; binding and its absence hold for the method and conditions named. Some binding calls cover weakened binding; strength is not graded here.

Protein sequences, listed by entry. Tags and fused reporters are not part of them. Residues count along the entry.
UniProt Q96J02, residues 524-903: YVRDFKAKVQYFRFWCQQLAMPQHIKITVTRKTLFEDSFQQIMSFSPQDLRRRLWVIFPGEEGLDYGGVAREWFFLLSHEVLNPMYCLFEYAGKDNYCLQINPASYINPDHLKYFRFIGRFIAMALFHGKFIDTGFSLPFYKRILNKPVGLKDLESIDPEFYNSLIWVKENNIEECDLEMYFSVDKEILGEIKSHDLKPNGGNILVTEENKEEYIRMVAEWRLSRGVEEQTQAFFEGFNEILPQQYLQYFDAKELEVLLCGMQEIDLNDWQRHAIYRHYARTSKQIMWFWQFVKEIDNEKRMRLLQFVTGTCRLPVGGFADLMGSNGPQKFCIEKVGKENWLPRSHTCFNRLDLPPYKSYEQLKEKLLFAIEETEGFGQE
UniProt P46934, residues 929-1319: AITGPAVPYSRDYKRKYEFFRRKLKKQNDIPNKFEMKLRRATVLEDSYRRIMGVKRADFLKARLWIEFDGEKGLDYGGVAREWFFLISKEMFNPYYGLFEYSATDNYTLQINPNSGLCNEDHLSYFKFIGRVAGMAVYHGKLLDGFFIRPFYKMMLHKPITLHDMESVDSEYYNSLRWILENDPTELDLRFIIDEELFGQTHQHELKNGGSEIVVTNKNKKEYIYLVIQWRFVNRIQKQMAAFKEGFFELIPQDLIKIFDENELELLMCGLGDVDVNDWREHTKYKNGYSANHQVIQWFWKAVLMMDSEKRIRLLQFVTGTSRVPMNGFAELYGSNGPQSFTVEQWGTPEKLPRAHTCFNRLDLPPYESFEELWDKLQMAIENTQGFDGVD

B1: Ubv.ITCH.04 (designed binder)
chain: MQIFVKTLTGLSITLEVEPSDTIENVKAKIQDKEGIPPDQQILIFGGKRLEDGRTLSDYNIQKKSTLYLLMRLRGVSR
B2: Ubv.ITCH.05 (designed binder)
chain: MQIFVKTLTGTDITLEVEPSDTIENVKAKIQDKEGIPPDQQILLFAGKQLEDGRTLSDYNIPGDSTLYLLMRFGVNKR
B3: Nedd4-N4-A11 (designed binder)
chain: MLILVKTLTGHSITLEVEPSDTIENVKAKIQDKEGIPPDQQRLFFAGKQLEDGRTLSDYNIHKFSTLHLVKRLRGRWK
B4: Nedd4-N4-A9 (designed binder)
chain: MRIFVTTLTGRAITLEVEPSDTIENVKAKIQDKEGIPPDQQRLIFTGKKLEDGRTLSDYNIPKESTLYLVKRLRGMEQ
B5: Nedd4-N4-B1 (designed binder)
chain: MHIFVRTLTRKIITLEVEPSDTIENVKAKIQDKEGIPPDQQRLFFTGMTLEDGRTLSDYNIQKESTLHLVLRLRGGGG
B6: Nedd4-N4-B10 (designed binder)
chain: MRILVKTLTRKVITLEVEPSDTIENVKAKIQDKEGIPPDQQRLIFAGQRLEDGRTLSDYNIQKESTLHLVLRLRGGGG
B7: Nedd4-N4-B5 (designed binder)
chain: MQIVVKTLSRRTIGLEVEPSDTIENVKAKIQDKEGIPPDQQRLIFAGKKLEDGRTLSDYNIQKESTLHLALKLPGMGG
B8: Nedd4-N4-B6 (designed binder)
chain: MQIFVKTFTGKSITLEVEPSDTIENVKAKIQDKEGIPPDQQRLIFDRNKLEDGRTLSDYNIKKESTLGLVLRLRGGGG
B9: Nedd4-N4-C1 (designed binder)
chain: MQILVQTLTRKTITLEVEPSDTIENVKAKIQDKEGIPPDQQRLFFAGTQLEDGRTLSDYNIQKHSTLYLVLRLLGRRH
B10: Nedd4-N4-C10 (designed binder)
chain: MQILVKTLTGKTITLEVEPSDTIENVKAKIQDKEGIPPDQQRLIFAGLKLEDGRTLSDYNIQKVSTLYLVKTFPGRRQ
B11: Nedd4-N4-C4 (designed binder)
chain: MYISVKTLTGESISLEVEPSDTIENVKAKIQDKEGIPPDQQKLFFAGKILEDGRTLSDYNILKWSTLHLVKRLRAVHM
B12: Nedd4-N4-C6 (designed binder)
chain: MPIVVKTLAGYTIHLEVEPSDTIENVKAKIQDKEGIPPDQQKLLFAGNRLEDGRTLSDYNIHNGSTLYLVKRLRGGGG
B13: Nedd4-N4-D1 (designed binder)
chain: MQIFVNTLARTSISLEVEPSDTIENVKAKIQDKEGIPPDQQRLIFAGKQLEDGRTLSDYNIQKESTLHLVLRLPGTKV
B14: Nedd4-N4-D10 (designed binder)
chain: MQIFVRTLMRKSISLEVEPSDTIENVKAKIQDKEGIPPDQQKLIFAGKLLEDGRTLSDYNIQKESTLHLVKKLILLRE
B15: Nedd4-N4-D12 (designed binder)
chain: MQIYVKTLTRKRITLEVEPSDTIENVKAKIQDKEGIPPDQQKLFFNGKQLEDGRTLSDYNIQKESTLHLVLRLRGGGG
B16: Nedd4-N4-D3 (designed binder)
chain: MKISVNTLTGKTITLEVEPSDTIENVKAKIQDKEGIPPDQQRLIFAGKQLEDGRTLSDYNIQKYSTLYLVKRLRRLKQ
B17: Nedd4-N4-D5 (designed binder)
chain: MQIFVPTLVQKAINLEVEPSDTIENVKAKIQDKEGIPPDQQRLFFFRKPLEDGRTLSDYNIKKESTLHLLWRFSSRLM
B18: Nedd4-N4-D8 (designed binder)
chain: MQIFVRTLTGKTITLEVEPSDTIENVKAKIQDKEGIPPDQQRLIFAKQQLEDGRTLSDYNILKESTLGLVRRLRGLVS

Target: ITCH HECT domain (residues 483-862) (UniProt Q96J02)
Experiment: phage ELISA after 5 rounds of selection

binding, binds:
B1
B2

Target: HECT-domain of Nedd4 (residues 510-900) (UniProt P46934)
Experiment: phage selection and ELISA

binding, binds:
B3
B4
B5
B6
B7
B8
B9
B10
B11
B12
B13
B14
B15
B16
B17
B18
